Source: publication PMC7803970
Results are given in words; binding and its absence hold for the method and conditions named. Binding seen in cells or lysates may run through a third protein. These calls come from enrichment with a bait or labelling near it, and not all partners need be listed.

Protein sequences, listed by entry. Tags and fused reporters are not part of them.
UniProt Q8R4B8: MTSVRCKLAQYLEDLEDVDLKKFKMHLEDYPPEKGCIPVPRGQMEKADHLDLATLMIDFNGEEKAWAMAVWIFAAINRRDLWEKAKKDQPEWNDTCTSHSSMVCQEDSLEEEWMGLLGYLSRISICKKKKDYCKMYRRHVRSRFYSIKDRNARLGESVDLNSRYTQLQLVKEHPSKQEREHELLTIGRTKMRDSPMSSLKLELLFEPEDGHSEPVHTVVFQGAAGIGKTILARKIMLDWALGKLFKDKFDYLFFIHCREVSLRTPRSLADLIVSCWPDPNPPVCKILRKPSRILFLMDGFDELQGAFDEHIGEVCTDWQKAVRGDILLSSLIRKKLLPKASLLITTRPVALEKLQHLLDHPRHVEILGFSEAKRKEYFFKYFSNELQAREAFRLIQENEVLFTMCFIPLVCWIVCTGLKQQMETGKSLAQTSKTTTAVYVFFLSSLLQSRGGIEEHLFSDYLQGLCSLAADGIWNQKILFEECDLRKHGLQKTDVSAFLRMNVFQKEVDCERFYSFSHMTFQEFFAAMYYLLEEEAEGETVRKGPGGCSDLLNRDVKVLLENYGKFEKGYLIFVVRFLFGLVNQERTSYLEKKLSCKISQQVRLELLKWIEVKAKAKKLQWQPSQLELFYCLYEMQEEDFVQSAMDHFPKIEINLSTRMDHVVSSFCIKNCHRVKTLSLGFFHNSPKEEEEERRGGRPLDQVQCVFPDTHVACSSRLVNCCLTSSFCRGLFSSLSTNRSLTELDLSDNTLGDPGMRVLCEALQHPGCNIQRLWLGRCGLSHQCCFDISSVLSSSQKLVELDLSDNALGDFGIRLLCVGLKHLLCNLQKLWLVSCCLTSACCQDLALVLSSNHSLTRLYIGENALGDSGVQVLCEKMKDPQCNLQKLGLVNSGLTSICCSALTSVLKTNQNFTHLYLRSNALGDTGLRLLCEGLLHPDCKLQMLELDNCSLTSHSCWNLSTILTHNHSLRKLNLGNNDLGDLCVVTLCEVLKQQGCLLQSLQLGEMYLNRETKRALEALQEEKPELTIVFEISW

Target: T1, G protein-coupled receptor 120 (mouse (endogenous in Kupffer cell line BNCC340733)) (UniProt Q7TMA4)
T1 sequence: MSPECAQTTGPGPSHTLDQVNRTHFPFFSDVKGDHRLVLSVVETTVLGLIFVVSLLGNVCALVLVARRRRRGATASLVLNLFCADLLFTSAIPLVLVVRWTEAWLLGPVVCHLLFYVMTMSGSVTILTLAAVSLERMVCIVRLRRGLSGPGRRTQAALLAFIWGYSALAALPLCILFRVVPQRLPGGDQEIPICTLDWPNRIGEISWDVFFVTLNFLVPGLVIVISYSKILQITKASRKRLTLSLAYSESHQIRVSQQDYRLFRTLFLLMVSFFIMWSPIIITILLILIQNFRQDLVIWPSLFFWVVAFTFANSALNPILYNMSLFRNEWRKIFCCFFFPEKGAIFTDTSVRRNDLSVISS
Test: affinity purification with mass spectrometry; immunoprecipitation of endogenous GPR120 from Kupffer cells treated or not with 100 ng/mL LPS for 12 h; precipitate analysed by LC-MS/MS

NOD-like receptor pyrin domain-containing protein 3 (from UniProt Q8R4B8 1-1033)
binding: binds
